# Library screening results

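Viability assay of Plasmodium falciparum sporozoites; the read-out is not stated. The concentration is filed as 10 mM, unlikely as a test dose, so the dose is not known. The record gives no direction; compounds that gave an IC50 in retests scored well above the rest, so higher reads as lower viability. Strong results were mostly tested again. Size under these conditions: about 34,000 compounds, about 280 of them at 50% or above in at least one test.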

Values are the deposited “Percent Effect”, in %.
The record does not define 0% and 100%; most values in the screen are far below 50% and negative numbers occur (in some assays of this library far below -100).
The compounds are a random part of those screened.

With O=C(N1CCOCC1)N1CCc2ncc(CN3CCCCC3)n2CC1.O=C(O)C(F)(F)F the screen gave 9.021%.
With Cc1cc(C)c(CNC(=O)N(C)Cc2ccc3c(c2)OCO3)c(=O)[nH]1 the screen gave 0.6284%.
With CNC(=O)c1cc(C2CCCN2)n[nH]1.Cl (centres unmarked) the screen gave -4.621%.
With CC(NC(=O)CSCC#N)c1ccc(F)cc1 (centres unmarked) the screen gave 5.655%.
With COCC(=O)N1CCC2(CCC2N(C)Cc2ccco2)CC1.O=C(O)C(F)(F)F (centres unmarked) the screen gave 8.554%.
With O=C(O)C(F)(F)F.[H][C@@]12CCN(C3CCOCC3)C[C@]1([H])O[C@H](C(=O)N1CCCC1)C2 the screen gave -0.7895%.
With O=C(CCN1CCC(C(=O)c2cc(F)ccc2F)CC1)NC1CC1 the screen gave -14.99%.
With Cc1cc(C2CCCN(C(=O)c3cnccn3)C2)ccn1 (centres unmarked) the screen gave -4.621%.
With CN(C)C1CCN(C(=O)c2cc(-c3ccn(C)n3)n3ccccc23)CC1.O=C(O)C(F)(F)F the screen gave 11.59%.
With CC(NC(=O)Cc1cccs1)c1nnc2n1CCCCC2 (centres unmarked) the screen gave 4.428%.
With CCn1c(C)nnc1CN(C)C1CCN(CCCSC)C1 (centres unmarked) the screen gave 4.592%.
With Cc1noc(C)c1CN1CCn2cc(CN3CCCC3)nc2C1.O=C(O)C(F)(F)F.O=C(O)C(F)(F)F the screen gave -0.9418%.
With CCc1ncc(CN[C@@H]2CCCN(C(C)=O)[C@H]2c2ccc(C)s2)cn1.Cl the screen gave 12.25%.
With CCC(Nc1ccc(Oc2ccc(C#N)cc2OC)cc1)C(N)=O (centres unmarked) the screen gave 1.446%.
With Cc1ccn2ncc(C(=O)N3CCCC(n4nc(C)nc4C)C3)c2n1 (centres unmarked) the screen gave -5.574%.
With Cc1nc(C)n(CC2CN(CCC(=O)N3CCCCC3)CCO2)n1 (centres unmarked) the screen gave 9.082%.
With CCc1ncnc2c1CCN(Cc1ccc(OC)cc1)CC2.O=C(O)C(F)(F)F the screen gave -12.64%.
With COCCOC(=O)N1CCC(c2nccn2CC2CC2)CC1 the screen gave 4.474%.
With CN(Cc1ccco1)C(=O)NC1CCCN(c2ncccn2)C1 (centres unmarked) the screen gave 6.389%.
With CC(C)CC(C#N)NC(=O)CCNC(=O)C(C)(C)C (centres unmarked) the screen gave 0.9858%.
With COCCC(=O)N1CCC2(CN(Cc3cccc(F)c3)C2)C1 the screen gave -11.2%.
With O=C(O)C(F)(F)F.O=C(O)C(F)(F)F.[H][C@]12C[C@@H](C(=O)Nc3cccnc3)CO[C@@]1([H])CCN(C(C)C)C2 the screen gave 16.19%.
With O=C(O)C(F)(F)F.[H][C@@]12C[C@H](C(=O)NCc3ccco3)CN(C(=O)c3ccncc3)[C@]1([H])CCO2 the screen gave -6.169%.
With Cn1nnc2c1C(COCc1ccccn1)CN(Cc1ccoc1)C2.O=C(O)C(F)(F)F.O=C(O)C(F)(F)F (centres unmarked) the screen gave -0.7299%.
With Cn1cc(C(=O)N2CCCC(c3ccncc3)C2)cn1 (centres unmarked) the screen gave -13.87%.
With O=C(CSc1nccc(-c2ccc3c(c2)OCO3)n1)N1CCOCC1 the screen gave -8.9%.
With CCc1nc2n(n1)CC(NCC(=O)Nc1ccc(Cl)cn1)CC2 (centres unmarked) the screen gave -2.878%.
With Cc1ccc(O)c(CNCC2CCCN2c2cccnn2)n1 (centres unmarked) the screen gave 3.078%.

Repeated from the top, 3 entries:

| Compound | effect |
|---|---|
| `O=C(N1CCOCC1)N1CCc2ncc(CN3CCCCC3)n2CC1.O=C(O)C(F)(F)F` | 9.021 |
| `Cc1cc(C)c(CNC(=O)N(C)Cc2ccc3c(c2)OCO3)c(=O)[nH]1` | 0.6284 |
| `CNC(=O)c1cc(C2CCCN2)n[nH]1.Cl` (centres unmarked) | -4.621 |

Data taken from ChEMBL document CHEMBL3988442, “University of Dundee, Small-Polar-MMV Screening Library” (2021).